Results deposited as PubChem BioAssay AID1159579 (Peter MacCallum Cancer Centre, 2015)

Purpose: 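Find genes whose silencing alters migration of lymphatic endothelial cells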 (follow-up of hits)
System: human dermal lymphatic endothelial cells
Knock-down reagent: single siRNA against human genes, 25 nM
Measurement: 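Scratch wound imaging measuring area filled by moving cells plus nuclei number, averaged over two wells and scaled to mock-transfected controls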
Scale: migration relative to mock: higher = more migration into the scratch; mean nuclei count: higher = more cells remaining
Active means: 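Called active when the migration ratio is 0.6 or lower (impaired) or 1.3 or higher (accelerated), but inactive whenever the mean nuclei count falls under 3300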
Meaning of the calls: active = migration changed (impaired or accelerated); inactive = no migration change, or too few cells
This is a random part of about 2,000 reagents. In the full data, 549 (27%) got an active call. 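Some migration ratios are negative; siRNAs with too few cells are inactive whatever their migration ratio.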 Reagents against one gene are numbered here. Not given: the time to read-out.

PABPC4 (GeneID 8761) #1 — migration relative to mock = 0.44; migration and cell number class = migration reduced; mean nuclei count = 4423; Call = active
PABPC4 (GeneID 8761) #2 — migration relative to mock = 0.72; migration and cell number class = no change in migration or cell number; mean nuclei count = 6056; Call = inactive
PABPC4 (GeneID 8761) #3 — migration relative to mock = 1.08; migration and cell number class = no change in migration or cell number; mean nuclei count = 5026; Call = inactive
PABPC4 (GeneID 8761) #4 — migration relative to mock = 0.8; migration and cell number class = no change in migration or cell number; mean nuclei count = 4766; Call = inactive
ANAPC7 (GeneID 51434) #1 — migration relative to mock = 0.68; migration and cell number class = no change in migration or cell number; mean nuclei count = 4795; Call = inactive
ANAPC7 (GeneID 51434) #2 — migration relative to mock = 0.88; migration and cell number class = no change in migration or cell number; mean nuclei count = 5430; Call = inactive
ANAPC7 (GeneID 51434) #3 — migration relative to mock = 0.62; migration and cell number class = no change in migration or cell number; mean nuclei count = 5935; Call = inactive
ANAPC7 (GeneID 51434) #4 — migration relative to mock = 0.23; migration and cell number class = migration reduced; mean nuclei count = 4366; Call = active
CAMK1 (GeneID 8536) #1 — migration relative to mock = 0.58; migration and cell number class = migration reduced; mean nuclei count = 5975; Call = active
CAMK1 (GeneID 8536) #2 — migration relative to mock = 0.91; migration and cell number class = no change in migration or cell number; mean nuclei count = 5986; Call = inactive
CAMK1 (GeneID 8536) #3 — migration relative to mock = 0.93; migration and cell number class = no change in migration or cell number; mean nuclei count = 5280; Call = inactive
CAMK1 (GeneID 8536) #4 — migration relative to mock = 0.84; migration and cell number class = no change in migration or cell number; mean nuclei count = 6386; Call = inactive
STK40 (GeneID 83931) #1 — migration relative to mock = 1.07; migration and cell number class = no change in migration or cell number; mean nuclei count = 6572; Call = inactive
STK40 (GeneID 83931) #2 — migration relative to mock = 1.1; migration and cell number class = no change in migration or cell number; mean nuclei count = 5694; Call = inactive
STK40 (GeneID 83931) #3 — migration relative to mock = 0.16; migration and cell number class = migration reduced; mean nuclei count = 3780; Call = active
STK40 (GeneID 83931) #4 — migration relative to mock = 1.04; migration and cell number class = no change in migration or cell number; mean nuclei count = 7338; Call = inactive
RBMY1A1 (GeneID 5940) #1 — migration relative to mock = 0.94; migration and cell number class = no change in migration or cell number; mean nuclei count = 5968; Call = inactive
RBMY1A1 (GeneID 5940) #2 — migration relative to mock = 0.76; migration and cell number class = no change in migration or cell number; mean nuclei count = 5471; Call = inactive
RBMY1A1 (GeneID 5940) #3 — migration relative to mock = 1.19; migration and cell number class = no change in migration or cell number; mean nuclei count = 5124; Call = inactive
RBMY1A1 (GeneID 5940) #4 — migration relative to mock = 0.9; migration and cell number class = no change in migration or cell number; mean nuclei count = 5218; Call = inactive

5 entries from above, ordered by “mean nuclei count”, low to high.
ANAPC7 (GeneID 51434) #4 — migration relative to mock = 0.23; migration and cell number class = migration reduced; mean nuclei count = 4366; Call = active
ANAPC7 (GeneID 51434) #1 — migration relative to mock = 0.68; migration and cell number class = no change in migration or cell number; mean nuclei count = 4795; Call = inactive
ANAPC7 (GeneID 51434) #2 — migration relative to mock = 0.88; migration and cell number class = no change in migration or cell number; mean nuclei count = 5430; Call = inactive
ANAPC7 (GeneID 51434) #3 — migration relative to mock = 0.62; migration and cell number class = no change in migration or cell number; mean nuclei count = 5935; Call = inactive
CAMK1 (GeneID 8536) #1 — migration relative to mock = 0.58; migration and cell number class = migration reduced; mean nuclei count = 5975; Call = active

Next results follow.
DEFB124 (GeneID 245937) #1 — migration relative to mock = 1.08; migration and cell number class = no change in migration or cell number; mean nuclei count = 6004; Call = inactive
DEFB124 (GeneID 245937) #2 — migration relative to mock = -0.32; migration and cell number class = too few cells; migration not scored; mean nuclei count = 2744; Call = inactive
DEFB124 (GeneID 245937) #3 — migration relative to mock = 0.99; migration and cell number class = no change in migration or cell number; mean nuclei count = 5932; Call = inactive
DEFB124 (GeneID 245937) #4 — migration relative to mock = 0.72; migration and cell number class = no change in migration or cell number; mean nuclei count = 5302; Call = inactive
COL11A1 (GeneID 1301) #1 — migration relative to mock = 0.94; migration and cell number class = no change in migration or cell number; mean nuclei count = 5775; Call = inactive
COL11A1 (GeneID 1301) #2 — migration relative to mock = 0.67; migration and cell number class = no change in migration or cell number; mean nuclei count = 4996; Call = inactive
COL11A1 (GeneID 1301) #3 — migration relative to mock = 0.88; migration and cell number class = no change in migration or cell number; mean nuclei count = 5738; Call = inactive
COL11A1 (GeneID 1301) #4 — migration relative to mock = 1.08; migration and cell number class = no change in migration or cell number; mean nuclei count = 5067; Call = inactive
PAQR5 (GeneID 54852) #1 — migration relative to mock = 0.78; migration and cell number class = no change in migration or cell number; mean nuclei count = 6336; Call = inactive
PAQR5 (GeneID 54852) #2 — migration relative to mock = 0.46; migration and cell number class = migration reduced; mean nuclei count = 4680; Call = active
PAQR5 (GeneID 54852) #3 — migration relative to mock = 1.06; migration and cell number class = no change in migration or cell number; mean nuclei count = 4815; Call = inactive
PAQR5 (GeneID 54852) #4 — migration relative to mock = 0.64; migration and cell number class = no change in migration or cell number; mean nuclei count = 4539; Call = inactive
LAYN (GeneID 143903) #1 — migration relative to mock = 0.88; migration and cell number class = no change in migration or cell number; mean nuclei count = 5202; Call = inactive
LAYN (GeneID 143903) #2 — migration relative to mock = 0.96; migration and cell number class = no change in migration or cell number; mean nuclei count = 6706; Call = inactive
LAYN (GeneID 143903) #3 — migration relative to mock = 1.04; migration and cell number class = no change in migration or cell number; mean nuclei count = 4320; Call = inactive
LAYN (GeneID 143903) #4 — migration relative to mock = 0.94; migration and cell number class = no change in migration or cell number; mean nuclei count = 5556; Call = inactive
